Taken from: PubChem BioAssay AID1224826 (NIAID, 2016)
In all, the deposit lists about 17,000 reagents; shown is an unselected part. Over the whole deposit, about 1,110 (6.6%) got an active call. 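Active means lowered or raised reporter signal; replicate intensities are raw and not normalised per plate.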 A number with no mark means an inactive call. Reagents against one gene are numbered here. Further read-outs or replicates are left out here.

Purpose: 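Knock-downs that raise or lower Tnf reporter signal after endotoxin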 (primary screen)
Cells: RAW264.7 G9 macrophages from mouse bearing reporters for p65 (GFP) and the Tnf promoter (mCherry)
Knock-down reagent: siRNA pool against mouse genes, 100 nM
Duration: 16 h of LPS stimulation, after 2 days of siRNA transfection
Conditions: bacterial lipopolysaccharide (Salmonella minnesota R595), 10 ng/ml
Measured: 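Nuclear mCherry signal of the Tnf promoter reporter measured by imaging after background removal, scaled to each plate median and turned into robust z-scores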
Scale: Tnf reporter robust z-score: higher = stronger Tnf promoter reporter signal after LPS
Active means: 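Called active when robust z-score is at most -1.3, matching the median of the Tlr4 knock-down control, or over 3; control wells and wells with under 50 cells never active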
Calls: active = Tnf reporter clearly lowered or raised; inactive = no clear change in Tnf reporter

For Dach2, the values are Tnf reporter robust z-score -0.27; fewer than 50 cells in well enough cells in well.
Against Gss the deposit lists Tnf reporter robust z-score -0.75; fewer than 50 cells in well enough cells in well.
Depletion of Rhbdl2 gave: Tnf reporter robust z-score -0.87; fewer than 50 cells in well enough cells in well.
Against Nipa1 the deposit lists fewer than 50 cells in well fewer than 50 cells per well; well left out of calls.
For Wfdc5 the deposit lists Tnf reporter robust z-score -0.66; fewer than 50 cells in well enough cells in well.
After knock-down of Pih1d2, the screen gave fewer than 50 cells in well fewer than 50 cells per well; well left out of calls.
Prss16 scored Tnf reporter robust z-score -0.81; fewer than 50 cells in well enough cells in well.
After knock-down of Sec14l2 the results were Tnf reporter robust z-score 0.49; fewer than 50 cells in well enough cells in well.
Against Rlim #1, the values are Tnf reporter robust z-score -0.37; fewer than 50 cells in well enough cells in well.
Depletion of Rlim #2 gave: Tnf reporter robust z-score -0.31; fewer than 50 cells in well enough cells in well.
Knock-down of Snx11 resulted in: Tnf reporter robust z-score 0.92; fewer than 50 cells in well enough cells in well.
With knock-down of 5330438D12Rik, the record shows Tnf reporter robust z-score 0.01; fewer than 50 cells in well enough cells in well.

Entries listed so far whose gene name begins with R or r:
Rhbdl2 | Tnf reporter robust z-score = -0.87; fewer than 50 cells in well = enough cells in well
Rlim #1 | Tnf reporter robust z-score = -0.37; fewer than 50 cells in well = enough cells in well
Rlim #2 | Tnf reporter robust z-score = -0.31; fewer than 50 cells in well = enough cells in well
